PubChem BioAssay AID686943, Drosophila RNAi Screening Center, 2013
Aim: 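Fly genes whose loss alters ERK activation after insulin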 (primary screen). System: Drosophila S2R+ haemocyte-like cells expressing YFP-tagged ERK (Rolled). Reagent: long dsRNA against Drosophila genes. Treatment: insulin stimulation versus unstimulated cells; dose and duration not given. Measurement: 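Per-plate z-scores of phospho-ERK immunostaining normalised to YFP-tagged ERK, measured with and without insulin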. Scale: replicate 1, z-score of dpERK with insulin and replicate 2, z-score of dpERK with insulin: higher = more active ERK per ERK-YFP after insulin; replicate 1, z-score of dpERK under basal conditions: higher = more basal active ERK per ERK-YFP.
The screen tested about 23,000 reagents; this is an unselected part of those with a known target gene and a result. 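Extra replicates exist only for a retested subset of genes; insulin dose and duration not given; both raised and lowered dpERK matter.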 Reagents against one gene are numbered here. Further read-outs or replicates are left out here. Not stated in the record: the amount of reagent, the time to read-out.

gene knocked down,reagent no.,"replicate 1, z-score of dpERK with insulin","replicate 2, z-score of dpERK with insulin","replicate 1, z-score of dpERK under basal conditions"
CG13623,1,-2.12,-0.23,0.29
CG14744,1,0.19,0.1,-0.19
Pxn (Peroxidasin),1,0.97,1.04,-0.77
CG30289,1,-0.38,-0.72,1.15
GstE5 (Glutathione S transferase E5),1,0.61,0.09,1.03
CG40551 (retired record),1,0.62,-0.18,-0.17
CG13359,1,0.51,-0.16,-0.53
CG11842,1,-0.72,0.29,-0.59
Boh1 (Buddy of Hmr 1),1,0.18,0.2,-0.4
Qtzl (Quetzalcoatl),1,0.46,1.04,-0.23
CG5478,1,0.14,0.42,-0.39
Cdc45 (Cell division cycle 45),1,-1.78,-1.04,-0.13
Cdc45 (Cell division cycle 45),2,0.03,1.78,1.73
flap (flapper),1,0.28,0.94,0.72
flap (flapper),2,0.98,0.23,-0.46
CG34331,1,0.62,0.79,-0.16
CG43163,1,0.12,0.47,0.78
grsm (granny smith),1,0.22,-1.48,-0.74
grsm (granny smith),2,0.03,-1.7,-0.06
CG13760,1,0.17,0.7,-0.51
Sptz (Spastizin),1,0.13,-0.23,1.25
Cep290 (Centrosomal protein 290kDa),1,0.93,1.57,-1.22
CG13676,1,-0.49,-0.19,0.19
CG15650,1,0.62,0.94,-0.38
HBS1,1,-2.1,-1.47,0.81
CG11658,1,-0.06,0.32,0.18
DIP-kappa (Dpr-interacting protein kappa),1,-3.26,-3.21,-2.41
DIP-kappa (Dpr-interacting protein kappa),2,-0.4,-0.56,0.33
CG1635,1,0.54,0.15,0.87
Wdr62 (WD repeat domain 62),1,-0.19,-0.36,-0.51
Wdr62 (WD repeat domain 62),2,-0.47,-0.23,0.14
Wdr62 (WD repeat domain 62),3,-0.35,-1.97,-0.37
Wdr62 (WD repeat domain 62),4,-0.04,0.82,0.7
CG30087,1,0.19,-0.82,-0.86
CG13708,1,0.43,-0.15,0.54
CG7182,1,-0.72,-0.52,0.26
Snp (Snipper),1,-0.04,0.82,0.56
Snp (Snipper),2,-0.06,0.42,-0.62
CG14692,1,-0.37,0.03,0.08
CG18810,1,-1.13,-1.16,-0.7
Arc2 (Activity-regulated cytoskeleton associated protein 2),1,-0.77,0.26,-0.17
sli (slit),1,0.81,-0.25,-0.88
sli (slit),2,-1.09,-0.27,-0.71
CG11417,1,-0.41,-0.77,-0.98
CG14237,1,0.24,-1.42,0.68
twr (twisted bristles roughened eye),1,0.01,-2.55,-0.96
ush (u-shaped),1,4.87,6.26,1.2
CG15169,1,-0.89,0.32,0.09
AsnRS (Asparaginyl-tRNA synthetase),1,-0.52,-1.19,-0.45
CAH9 (Carbonic anhydrase 9),1,0.06,-0.3,1.49
Art9 (Arginine methyltransferase 9),1,3.86,0.5,1.44
Grl62c (Gustatory receptor-like 62c),1,0.19,0.38,0.2
CG4324,1,0.81,0.3,0.59
CG15080,1,0.54,1.54,-0.31
CG31445,1,0.34,0.7,0.08
CG13324,1,-0.77,-0.34,-1.72
mthl2 (methuselah-like 2),1,0.35,0.69,-0.77

9 entries from above, reformatted:
Cep290 (Centrosomal protein 290kDa)
- replicate 1, z-score of dpERK with insulin: 0.93
- replicate 2, z-score of dpERK with insulin: 1.57
- replicate 1, z-score of dpERK under basal conditions: -1.22

CG13676
- replicate 1, z-score of dpERK with insulin: -0.49
- replicate 2, z-score of dpERK with insulin: -0.19
- replicate 1, z-score of dpERK under basal conditions: 0.19

CG15650
- replicate 1, z-score of dpERK with insulin: 0.62
- replicate 2, z-score of dpERK with insulin: 0.94
- replicate 1, z-score of dpERK under basal conditions: -0.38

HBS1
- replicate 1, z-score of dpERK with insulin: -2.1
- replicate 2, z-score of dpERK with insulin: -1.47
- replicate 1, z-score of dpERK under basal conditions: 0.81

CG11658
- replicate 1, z-score of dpERK with insulin: -0.06
- replicate 2, z-score of dpERK with insulin: 0.32
- replicate 1, z-score of dpERK under basal conditions: 0.18

DIP-kappa (Dpr-interacting protein kappa) #1
- replicate 1, z-score of dpERK with insulin: -3.26
- replicate 2, z-score of dpERK with insulin: -3.21
- replicate 1, z-score of dpERK under basal conditions: -2.41

DIP-kappa (Dpr-interacting protein kappa) #2
- replicate 1, z-score of dpERK with insulin: -0.4
- replicate 2, z-score of dpERK with insulin: -0.56
- replicate 1, z-score of dpERK under basal conditions: 0.33

CG1635
- replicate 1, z-score of dpERK with insulin: 0.54
- replicate 2, z-score of dpERK with insulin: 0.15
- replicate 1, z-score of dpERK under basal conditions: 0.87

Wdr62 (WD repeat domain 62) #1
- replicate 1, z-score of dpERK with insulin: -0.19
- replicate 2, z-score of dpERK with insulin: -0.36
- replicate 1, z-score of dpERK under basal conditions: -0.51
